Data as given in PubChem BioAssay AID1224830 (NIAID, 2016)

Aim: 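Genes whose knock-down alters the TNF-alpha reporter response to LPS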 (primary screen)
Cells: human THP-1 monocytic leukaemia cells, TNF dual-luciferase reporter clone, PMA-differentiated to macrophage-like cells
Reagents: siRNA pool against human genes, 50 nM
Duration: LPS for 4 h, given about 3 days after siRNA transfection
Challenge: bacterial LPS (TLR4 ligand), 10 ng/ml
Detection: 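Ratio of firefly to renilla light, scaled to the plate median and expressed as a robust z-score per replicate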
Direction: TNF reporter robust z-score: higher = stronger TNF reporter response to LPS
Hit rule: 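Each well counts as active if its z-score is over 2.8 or under -1.5; controls are left without a call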
The deposit covers about 18,000 reagents; this is an unselected part. In the full data, about 2,900 (16%) got an active call. 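Calls are made per well; low scores hint the gene aids the LPS response, high scores that it dampens it.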 Repeated entries: four replicate wells of each siRNA pool.

gene	TNF reporter robust z-score	activity call
HNF1A (GeneID 6927)	0.11	inactive
HNF1A (GeneID 6927)	0.6	inactive
HNF1A (GeneID 6927)	0.12	inactive
HNF1A (GeneID 6927)	0.76	inactive
BAIAP2L1 (GeneID 55971)	0.39	inactive
BAIAP2L1 (GeneID 55971)	1.04	inactive
BAIAP2L1 (GeneID 55971)	1.21	inactive
BAIAP2L1 (GeneID 55971)	0.72	inactive
ODF1 (GeneID 4956)	-0.56	inactive
ODF1 (GeneID 4956)	-0.52	inactive
ODF1 (GeneID 4956)	-0.78	inactive
ODF1 (GeneID 4956)	0.01	inactive
FFAR1 (GeneID 2864)	2.44	inactive
FFAR1 (GeneID 2864)	-0.52	inactive
FFAR1 (GeneID 2864)	-1.21	inactive
FFAR1 (GeneID 2864)	-0.53	inactive
WDR62 (GeneID 284403)	-1.1	inactive
WDR62 (GeneID 284403)	-1.11	inactive
WDR62 (GeneID 284403)	-1.28	inactive
WDR62 (GeneID 284403)	-1.5	inactive
SLC25A26 (GeneID 115286)	-1.04	inactive
SLC25A26 (GeneID 115286)	-0.54	inactive
SLC25A26 (GeneID 115286)	-0.37	inactive
SLC25A26 (GeneID 115286)	-0.44	inactive
METTL6 (GeneID 131965)	-0.38	inactive
METTL6 (GeneID 131965)	0.17	inactive
METTL6 (GeneID 131965)	-0.49	inactive
METTL6 (GeneID 131965)	-0.31	inactive
GJD4 (GeneID 219770)	0.09	inactive
GJD4 (GeneID 219770)	1.32	inactive
GJD4 (GeneID 219770)	-0.24	inactive
GJD4 (GeneID 219770)	0.08	inactive
ACSM6 (GeneID 142827)	-0.38	inactive
ACSM6 (GeneID 142827)	-0.8	inactive
ACSM6 (GeneID 142827)	0.03	inactive
ACSM6 (GeneID 142827)	0.97	inactive
GAS8-AS1 (GeneID 750)	-0.76	inactive
GAS8-AS1 (GeneID 750)	0.19	inactive
GAS8-AS1 (GeneID 750)	0	inactive
GAS8-AS1 (GeneID 750)	-0.01	inactive
ZACN (GeneID 353174)	-0.33	inactive
ZACN (GeneID 353174)	-0.14	inactive
ZACN (GeneID 353174)	-0.08	inactive
ZACN (GeneID 353174)	0.99	inactive
KLF11 (GeneID 8462)	-1.06	inactive
KLF11 (GeneID 8462)	0.2	inactive
KLF11 (GeneID 8462)	-0.67	inactive
KLF11 (GeneID 8462)	-0.36	inactive
DGKI (GeneID 9162)	-0.03	inactive
DGKI (GeneID 9162)	-0.54	inactive
DGKI (GeneID 9162)	0	inactive
DGKI (GeneID 9162)	0.38	inactive
SIN3A (GeneID 25942)	-0.86	inactive
SIN3A (GeneID 25942)	-1.03	inactive
SIN3A (GeneID 25942)	-1.24	inactive
SIN3A (GeneID 25942)	-1.2	inactive
POGLUT3 (GeneID 143888)	-0.57	inactive
POGLUT3 (GeneID 143888)	1.48	inactive
POGLUT3 (GeneID 143888)	2.21	inactive
POGLUT3 (GeneID 143888)	0.8	inactive
ADPRHL1 (GeneID 113622)	-1.9	active
ADPRHL1 (GeneID 113622)	-1.57	active
ADPRHL1 (GeneID 113622)	-1.95	active
ADPRHL1 (GeneID 113622)	-1.59	active
TTC8 (GeneID 123016)	-0.07	inactive
TTC8 (GeneID 123016)	1.05	inactive
TTC8 (GeneID 123016)	-0.03	inactive
TTC8 (GeneID 123016)	-0.46	inactive
EDEM1 (GeneID 9695)	-0.53	inactive
EDEM1 (GeneID 9695)	-0.56	inactive
EDEM1 (GeneID 9695)	-0.88	inactive
EDEM1 (GeneID 9695)	1.17	inactive
PGAM4 (GeneID 441531)	0.09	inactive
PGAM4 (GeneID 441531)	-0.71	inactive
PGAM4 (GeneID 441531)	0.24	inactive
PGAM4 (GeneID 441531)	0.03	inactive
MTNR1A (GeneID 4543)	-1.22	inactive
MTNR1A (GeneID 4543)	0.43	inactive
MTNR1A (GeneID 4543)	-0.71	inactive
MTNR1A (GeneID 4543)	0.27	inactive
ZNF532 (GeneID 55205)	-0.65	inactive
ZNF532 (GeneID 55205)	-0.97	inactive
ZNF532 (GeneID 55205)	-0.81	inactive
ZNF532 (GeneID 55205)	-0.8	inactive
ZNF574 (GeneID 64763)	2.31	inactive
ZNF574 (GeneID 64763)	3.03	active
ZNF574 (GeneID 64763)	0.86	inactive
ZNF574 (GeneID 64763)	0.87	inactive
PIGL (GeneID 9487)	-0.98	inactive
PIGL (GeneID 9487)	-0.29	inactive
PIGL (GeneID 9487)	-0.48	inactive
PIGL (GeneID 9487)	0.04	inactive
SCAMP3 (GeneID 10067)	1.58	inactive
SCAMP3 (GeneID 10067)	-0.58	inactive
SCAMP3 (GeneID 10067)	1.05	inactive
SCAMP3 (GeneID 10067)	0.51	inactive
NANOS2 (GeneID 339345)	-0.61	inactive
NANOS2 (GeneID 339345)	2.53	inactive
NANOS2 (GeneID 339345)	1.31	inactive
NANOS2 (GeneID 339345)	-0.09	inactive
NUP210 (GeneID 23225)	0.09	inactive
NUP210 (GeneID 23225)	0.42	inactive
NUP210 (GeneID 23225)	-0.33	inactive
NUP210 (GeneID 23225)	0.6	inactive
RER1 (GeneID 11079)	2.09	inactive
RER1 (GeneID 11079)	0.68	inactive
RER1 (GeneID 11079)	0.27	inactive
RER1 (GeneID 11079)	0.46	inactive
ATP5F1C (GeneID 509)	-0.67	inactive
ATP5F1C (GeneID 509)	-0.71	inactive
ATP5F1C (GeneID 509)	-0.42	inactive
ATP5F1C (GeneID 509)	-0.84	inactive
